{
  "source": "ChEMBL document CHEMBL4406832",
  "about": "“Discovery of novel series of 2-substituted benzo[d]oxazol-5-amine derivatives as multi-target directed ligands for the treatment of Alzheimer's disease” (Eur J Med Chem, 2019)",
  "test": "Permeability of the compound in pH 7.4 PBS buffer incubated for 18 hrs by PAMPA-BBB assay",
  "data": [
    {"molecule": "COc1cc2c(cc1OC)C(=O)C(CC1CCN(Cc3ccccc3)CC1)C2", "note": "(stereo unspecified) [DONEPEZIL]", "values": [
      {"measurement": "Papp at 18 h", "value": 8.32, "unit": "×10⁻⁶ cm/s"}
    ]}
  ]
}
